Experimental findings from PubChem BioAssay AID662 (National Center for Advancing Translational Sciences (NCATS), 2007) are described below.

This is one part of the list. Shown are side measurements of this screen, not its main read-out; they come without a call. The list favours compounds with an active or inconclusive main result. The note in brackets gives the kind of curve behind each potency; many fits are weak.

The term AC50 denotes the concentration giving half of the maximal activity seen.

The assay can be described thus: Cell signaling CRE-BLA (Fsk stim). The conditions noted are these: CHO CRE-bla reporter (cAMP response element driving beta-lactamase), forskolin EC10, beta-lactamase ratio; measured here: 460 nm blue channel. The essentials:
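CHO CRE-bla cells, overnight plating in Opti-MEM with 0.5% dialyzed FBS; cpd titration + EC10 NKH 477, 3 h 37 °C; CCF4 2 h RT; ex 405/em 460 vs 530 ratio → %Activity, AC50.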
`CCC(C)NC(=O)C(NS(=O)(=O)c1cccc2nsnc12)c1ccccc1` (stereo not drawn): the AC50 was 0.0251 µM [falling, full curve, poor fit]. In the case of `C/C=C/Cn1c(SCc2ccccc2)nc2c1c(=O)[nH]c(=O)n2C`, the AC50 was 10 µM [rising, partial curve]. The value for `O=C(C1CCC1)N1CCC(c2nc3c(nnn3Cc3c(F)cccc3Cl)c(=O)[nH]2)CC1` was 10 µM [rising, partial curve]; that for `COc1ccc(C2=NO[C@@H]3C(=O)N(c4cccc(C)c4C)C(=O)[C@H]23)cc1OC` was 0.251 µM [falling, partial curve]. The value for `CSc1nc2c(c(=O)[nH]c(=O)n2C)n1C/C=C(\C)Cl` was 12.6 µM [rising, partial curve]; that for `CC1(C)Cc2c(sc3nc(NCCN4CCOCC4)n4ncnc4c23)CO1` was 2 µM [rising, full curve]. Take `C=CCc1c(C)[nH]c(=S)c(C#N)c1C`: the AC50 is 12.6 µM [rising, single point]. To `O=c1cc(CSc2nnc(-c3cccs3)n2Cc2ccccc2)nc2sc3ccccc3n12` belongs 12.6 µM [rising, partial curve]. `CCOc1cc(OCC)c(C(C)=O)cc1OCC`: the AC50 was 10 µM [rising, partial curve].

`COc1ccc(-n2c(SCC(=O)Nc3nccs3)nc3c(c2=O)SCC3)cc1`: the AC50 is 12.6 µM [rising, single point]. `Cc1cc(N2CCN(C(=O)c3ccco3)CC2)n2ncnc2n1`: the half-maximal activity concentration (AC50) was 3.16 µM [falling, single point].

Regarding `Cc1ccc(-c2nnc(N3CCOCC3)c3ccccc23)cc1S(=O)(=O)NCC1CCCO1` (stereo not drawn), the half-maximal activity concentration (AC50) was 3.16 µM [rising, full curve]. The value for `Cc1cc(C)nc(NC(=O)Nc2ccccc2C(F)(F)F)n1` was 12.6 µM [rising, single point]; that for `CN(C)c1ccc(-c2nnn(CC(=O)Nc3ccccc3N3CCOCC3)n2)cc1` was 5.01 µM [rising, single point]. Consider `CN(C)c1nc(N)nc(-c2ccco2)n1`, for which the concentration at half-maximal activity (AC50) is 12.6 µM [rising, single point]. `Cc1cnc(C(=O)Nc2cccc(-c3nnc4n3CCCCC4)c2)cn1`: the AC50 is 0.00316 µM [falling, full curve, poor fit]. The value for `CCN(CC)CCN1C(=O)C(O)=C(C(C)=O)C1c1ccccc1` (stereo not drawn) was 31.6 µM [falling, partial curve, poor fit]; that for `N#CC1=C2SCN(Cc3ccccc3)CN2C(=O)CC1c1ccc2c(c1)OCO2` (stereo not drawn) was 25.1 µM [rising, single point]; that for `CC1(C)NC(=O)NC2(C)NC(=O)NC(C)(C)C12` (stereo not drawn) was 3.98 µM [rising, partial curve]. Consider `O=c1c2[nH]c3ccccc3c2ncn1C1CCCCC1`, for which the AC50 was 15.8 µM [rising, partial curve, poor fit]. The value for `Cc1cccn2c(=O)c3cc(C(=O)NCCN4CCOCC4)c(=N)n(CCc4ccccc4)c3nc12` was 12.6 µM [rising, partial curve]; that for `Cc1c(C(=O)N2CCN(S(C)(=O)=O)CC2)oc2ccccc12` was 3.98 µM [falling, single point]; that for `CCCCn1c(NC(=O)c2ccccc2)nc2ccccc21` was 12.6 µM [falling, single point]. Take `Clc1ccccc1N1CCN(c2ncnc3nc[nH]c23)CC1`: the half-maximal activity concentration (AC50) is 12.6 µM [rising, single point].

Regarding `CCOC(=O)c1cnc2ccc(C(=O)OC)cc2c1NCCN1CCOCC1`, the AC50 is 15.8 µM [rising, partial curve].

With `Cc1cc(=O)oc(C)c1C(=O)OCC(=O)c1ccccc1`, the AC50 was 1.26 µM [falling, partial curve, poor fit]. The value for `O=c1c2ccccc2c(C=NCCO)c(O)n1-c1ccccc1` was 20 µM [rising, single point]; that for `CCC(Sc1nc(C)cc(=O)[nH]1)C(=O)Nc1nc2c(s1)CCCC2` (stereo not drawn) was 0.316 µM [falling, partial curve]; that for `Cn1cc(S(=O)(=O)N2CCN(Cc3ccccc3)CC2)c(=O)n(C)c1=O` was 12.6 µM [rising, partial curve]. In the case of `COc1ccc(-n2c(=O)c(C)nc3cncnc32)cc1`, the AC50 is 12.6 µM [rising, partial curve, poor fit]. To `COc1ccc(N2CCN(C(=O)CN(c3ccc(Br)cc3)S(C)(=O)=O)CC2)cc1` belongs 0.0126 µM [falling, partial curve, poor fit]; to `CCOc1nc(Nc2ccc(-c3nc4ccccc4o3)cc2)nc(N2CCOCC2)n1`, 2.51 µM [rising, single point]; to `Cn1c2ccc(F)cc2c2ncn(CCN3CCOCC3)c(=O)c21`, 25.1 µM [rising, single point]. To `CC1(C)Oc2ccc3ccc(=O)oc3c2-c2cn[nH]c21` belongs 7.94 µM [rising, partial curve]. To `Cc1nn(-c2ccc(F)cc2)c2nc(N)c(C#N)c(-c3cccs3)c12` belongs 12.6 µM [rising, partial curve]; to `COc1ccc2ccccc2c1C1CC(=O)N2CN(Cc3ccco3)CSC2=C1C#N` (stereo not drawn), 12.6 µM [falling, single point].

For `O=C(O)c1cc(=O)c2ccc(Cl)cc2[nH]1`, the AC50 was 31.6 µM [falling, single point]. As to `CCOC(=O)c1cnc(SCc2nc(N)nc(Nc3ccccc3)n2)nc1N`, the AC50 is 7.94 µM [rising, partial curve]. Consider `COC(=O)N1CCC2(CC1)CN(C(=O)Nc1cccc(C#N)c1)C2`, for which the half-maximal activity concentration (AC50) is 3.98 µM [falling, single point]. To `COC(=O)c1c(NC(=O)c2ccco2)sc(C(=O)N2CCCC2)c1C` belongs 5.01 µM [rising, partial curve]; to `O=C1CN(C(=O)COC(=O)Cc2ccsc2)c2ccccc2N1`, 0.126 µM [falling, full curve, poor fit].

Consider `NC(=O)C1CCN(CCC(=O)Nc2cccc(Cl)c2)CC1`, for which the AC50 is 2.51 µM [falling, partial curve]. For the compound `CCOc1ccccc1OCc1nn2c(-c3ccc(C)cc3)nnc2s1`, the AC50 is 25.1 µM [rising, single point].
